Test results from patent US11958880B2, “Means and methods for site-specific functionalization of polypeptides” (LUDWIG-MAXIMILIANS-UNIVERSITÄT MÜNCHEN, priority 2014, dated 2024).
Some results were stated once for a whole list of compounds, not compound by compound.

Target: T1, tubulin tyrosine ligase (TTL) (Canis lupus familiaris, UniProt A0A8I3N5B1)
T1 construct: His-Tag (N); SUMO3 (Sumo) (N); made in house; host or cells: E. coli BL21(DE3)
T1 sequence (A0A8I3N5B1 1-377): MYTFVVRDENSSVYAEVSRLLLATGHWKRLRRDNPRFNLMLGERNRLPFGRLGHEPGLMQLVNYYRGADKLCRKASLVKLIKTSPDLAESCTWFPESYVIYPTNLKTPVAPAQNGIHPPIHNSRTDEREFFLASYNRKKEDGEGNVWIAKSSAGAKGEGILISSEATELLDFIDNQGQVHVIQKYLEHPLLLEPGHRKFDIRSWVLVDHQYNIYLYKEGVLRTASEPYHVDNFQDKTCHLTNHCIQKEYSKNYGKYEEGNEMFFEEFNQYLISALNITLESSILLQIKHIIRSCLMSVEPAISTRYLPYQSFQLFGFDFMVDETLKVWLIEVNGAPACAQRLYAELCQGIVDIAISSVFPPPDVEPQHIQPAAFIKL
Assay: TTL-mediated incorporation of tyrosine derivative to the C-terminus of GBP4 followed by SPAAC to DBCO-biotin (SDS-PAGE/western blot)
Format: biochemical
Details: moderate enzyme concentrations and short reaction times (summary)
Protocol: Tyrosination reactions were performed in a 150 μL solution consisting of 20 mM MES/K pH 7.0, 100 mM KCl, 10 mM MgCl2, 2.5 mM ATP, 1 mM tyrosine derivative, 0.1-1 μM TTL, 5 μM nanobody and 5 mM reduced glutathione in case of compounds containing azides or 5 mM DTT for all other derivatives, respectively. The mixture was incubated at 37° C. for 1-3 h.
Tyrosination reactions were performed as described in Example 16 using compound 3, 5 mM reduced glutathione and a ratio of 10:1 GBP4/TTL for 3 h. The reaction mixtures were rebuffered to Dulbecco's PBS pH 7.4 and incubated with 30 eq. of Sulfo-Cy5-DBCO (Jena Bioscience GmbH, Germany) or DBCO-PEG4-biotin (Jena Bioscience GmbH, Germany) at 30° C. for 4 h. Proteins were separated by SDS-PAGE. Biotinylated nanobodies were wet blotted onto a nitrocellulose membrane using a Bio-Rad Mini-Protean Tetra System (250 mA, one hour). A streptavidin peroxidase conjugate (Merck Millipore, Germany) was used for detection. Fluorescently labeled nanobodies were visualized by a Fuji FLA-5000 laser imager (634 nm excitation, LPG-filter) (Fujifilm, Japan).

N[C@@H](Cc1ccc(O)c(C=O)c1)C(=O)O [compound 1, 3-formyl-L-tyrosine]
efficiency of TTL-mediated chemoenzymatic ligation: up to 99%

[N-]=[N+]=Nc1cc(C[C@H](N)C(=O)O)ccc1O [compound 3, 3-azido-L-tyrosine]
efficiency of TTL-mediated chemoenzymatic ligation: up to 99%
